Assay results taken from US8012481B2, “Composition and method for inducing or restoring locomotor functions in an animal” (Universite Laval, priority 2004, dated 2011).
At least one compound was matched to its structure with a doubt left.

Tested on: paraplegic mice (lumbar spinal cord circuitry for hindlimb locomotion)
Test: Hindlimb movement generation (LM/NLM) on a motor-driven treadmill in complete spinal cord transected mice
Format: in vivo, mouse
Settings: SCH23390 given prior to SKF 81297 administration
Experimental: Animals and Treatment Thirty-two (n=32) male or female adult CD1 mice weighing 30-40 grams were tested prior to the study (Charles River Laboratory, St-Constant, Canada). The experiment was conducted in a Canadian Council on Animal Care approved facility in accordance with the CCAC Guide for Care and Use of Experimental Animals. Animals were spinalized 7-9 days prior to testing. A complete transection of the spinal cord was performed intervertebrally between the 9th and 10th vertebrae in isoflurane (2.5%) anesthetized animals. Complete spinalization was confirmed by 1) full paralysis of the hindlimbs, 2) post-mortem examination of the spinal cord microscopically and, in some cases, 3) staining transverse or sagittal spinal cord sections with luxol fast blue/cresyl violet for myelinated axons and nissl substance respectively. […]
Hindlimb movement recording. […] Hindlimb movements were assessed either as locomotor-like movements (LM) or non-locomotor movements (NLM) Locomotor-like movements were defined as rhythmic flexions and extensions occurring in both hindlimbs alternatively. Body weight support and plantar foot placement were facultative and therefore not required to be counted as locomotor-like (LM). […] Levels of weight supported movements and of plantar foot placements were assessed as either none, occasional, or frequent. […]

Compound: CN1CCc2cc(Cl)c(O)cc2[C@@H](c2ccccc2)C1 [SCH23390]
- effect of D1 antagonist pretreatment on ACOS values induced by SKF 81297: largely reduced
